# According to PubChem BioAssay (EPA / NIEHS):
# The chains behind the UniProt entries cited, without tags or fusion partners.
# UniProt P04637, whole entry, looked up: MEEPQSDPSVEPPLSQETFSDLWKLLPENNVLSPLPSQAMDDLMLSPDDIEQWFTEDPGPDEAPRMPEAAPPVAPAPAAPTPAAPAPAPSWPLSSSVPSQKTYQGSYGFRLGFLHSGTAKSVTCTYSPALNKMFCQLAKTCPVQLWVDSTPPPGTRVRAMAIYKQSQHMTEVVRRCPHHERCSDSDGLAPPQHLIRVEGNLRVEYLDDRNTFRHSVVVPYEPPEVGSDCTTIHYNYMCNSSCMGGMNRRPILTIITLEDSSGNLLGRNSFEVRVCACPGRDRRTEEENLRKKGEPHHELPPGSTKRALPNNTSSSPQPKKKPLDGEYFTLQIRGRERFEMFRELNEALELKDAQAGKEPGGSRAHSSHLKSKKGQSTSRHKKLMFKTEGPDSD
# Values joined by “and” are separate entries in the source; they are usually repeats but may differ in a detail not shown here. Equal entries are not always repeated. Inconclusive results, whose numbers are uncertain, are shown with a selection of clear calls. A potency beside an inconclusive call is a rough fit, not a confirmed value. The source holds several records for some structures; these can differ, active in one and inactive in another. Active and inactive are the calls of the source. Rule for the calls: active = hit-call score of the fitted dose curve at least 0.9, where 1 is the maximum; inconclusive = response in the unintended direction; inactive = score below 0.9.
# Target: Cellular tumor antigen p53 (Homo sapiens) (UniProt P04637)
# Experiment: TOX21_p53_BLA_p4_ratio: Tox21 HCT-116 p53 Agonism Beta-lactamase Assay, Ratio, Phase 4 (AID 2283601)
# From the text: TOX21_p53_BLA_p4 is a cell-based, single-readout assay that uses HCT116, a human intestinal cell line, […] in a 1536-well plate.TOX21_p53_BLA_p4_ratio is an assay readout measuring reporter gene via receptor activity and designed using inducible reporter (beta lactamase induction) detected with GAL4 b-lactamase reporter gene. The signal is derived from the ratio of cleaved (ch2) to uncleaved (ch1)reporter gene substrate used as the measure of target activity.Data from the assay component TOX21_p53_BLA_p4_ratio was analyzed into 1 assay endpoint. This assay endpoint, TOX21_p53_BLA_p4_ratio, was analyzed in the positive analysis fitting direction relative to DMSO as the negative control and baseline of activity. Using a type of inducible reporter, gain-of-signal activity can be used to understand changes in the reporter gene as they relate to the gene TP53. Furthermore, this assay endpoint can be referred to as a primary readout, because this assay has produced multiple assay endpoints where this ratio serves a reporter gene function to understand target activity. To generalize the intended target to other relatable targets, this assay endpoint is annotated to the DNA binding intended target family, where the subfamily is tumor suppressor.
# Thawing Method: Place 14 mL of pre-warmed thaw medium into a 15 mL of conical tub. Remove the vial of cells to be thawed from liquid nitrogen and thaw rapidly by placing at 37C in a water bath with gentle agitation for 1-2 minutes. Decontaminate the vial by wiping with 70% ethanol before opening in a biological safety cabinet. Transfer the vial contents drop-wise into 14 mL of thaw medium in a sterile 15-mL conical tub. Centrifuge cells at 900 rpm for 4 minutes and resuspend in thaw medium. Transfer contents to the T75 tissue culture flask containing Thaw Medium and place flask in a humidified 37C/5% CO2 incubator. Switch to growth medium at first passage.Propagation Method: Aspirate medium, rinse once in DPBS, add 0.25% Trypsin/EDTA and swirl to coat the cell evenly. Add an equal volume of Growth Medium to inactivate Trypsin after 2-3 minutes incubation at 37C. Centrifuge cells at 900 rpm for 4 minutes and resuspend in growth medium. Cell should be passage or fed at least twice a week.Assay Protocol: Harvest cells from culture in growth medium and resuspend in assay medium. 2.2 Dispense 4000 cells/5 uL/well into 1536-well black/clear bottom plates using a Multidrop dispenser. After the cells were incubated at 37C for 5 hours, 23 nL of compounds dissolved in DMSO were transferred to the assay plate by a PinTool resulting in a 217-fold dilution. Incubate the plates for 16 hours at 37C, 5% CO2. Add 1 uL of 6X LiveBLAzer FRET B/G (CCF4-AM) Substrate Mixture to each well using a BioRAPTR dispenser and incubate the plates at room temperature for 2 hours. Measure fluorescence intensity at 460 and 530 nm emission and 405 nm excitation by an Envision detector. Data is expressed as the ratio of 460nm/530nm emissions. Add 4 uL of Cell-titer Glo to each well using BioRAPTR and incubate the plates at room temperature for 2 hours. Measure fluorescence intensity by a VewLux plate reader.
SMILES,AC50,outcome
CSCCCN=C=S,inconclusive: 46.1 µM,
O=c1oc2ccccc2c(O)c1Cc1c(O)c2ccccc2oc1=O,active: 3.95 µM,
CSC(=O)c1c(C(F)F)nc(C(F)(F)F)c(C(=O)SC)c1CC(C)C,inconclusive: 45.9 µM,
Clc1ccc(COC(Cn2ccnc2)c2ccc(Cl)cc2Cl)cc1 (stereo not given),active: 77.8 µM and active: 62 µM and active: 33.9 µM,
CC1CN1 (stereo not given),inconclusive: 46.1 µM,
O=Cc1ccco1,inconclusive: 83.3 µM,
Brc1ccc(Oc2ccc(Br)cc2Br)c(Br)c1,inconclusive: 46.1 µM,
O=P(OCCCl)(OCCCl)OCCCl,inconclusive: 45.8 µM,inactive
N[C@@H]1C[C@H]1c1ccccc1,inconclusive: 23 µM,
CCOC(=O)CC(SP(=O)(OC)OC)C(=O)OCC (stereo not given),inconclusive: 4.91e-05 µM,inactive
Oc1ccc(C2(c3ccc(O)cc3)CCCCC2)cc1,active: 82.9 µM,
C=CCBr,inconclusive: 9.26e-05 µM,
C=CCO,inconclusive: 76.7 µM,
CC(C)(C)OOC(=O)c1ccccc1,inconclusive: 88.2 µM,
O=[N+]([O-])c1ccc(Cl)c(Cl)c1Cl,inconclusive: 45.5 µM,
c1ccc(OP(Oc2ccccc2)Oc2ccccc2)cc1,inconclusive: 46.1 µM and inconclusive: 86.3 µM,
Cc1ncc2n1-c1ccc(Cl)cc1C(c1ccccc1F)=NC2,,inactive
CCC(=O)O[C@H]1[C@@H](N2CCCCC2)C[C@H]2[C@@H]3CC[C@H]4C[C@H](OC(C)=O)[C@@H](N5CCCCC5)C[C@]4(C)[C@H]3CC[C@@]21C,inconclusive: 36.8 µM,
CCCCS(=O)(=O)Cl,inconclusive: 80.5 µM,

# Single records, from the list above.
# C=CCBr in the list: AC50: inconclusive: 9.26e-05 µM
# O=[N+]([O-])c1ccc(Cl)c(Cl)c1Cl in the list: AC50: inconclusive: 45.5 µM
# CC(C)(C)OOC(=O)c1ccccc1 in the list: AC50: inconclusive: 88.2 µM

# (continued)

SMILES,AC50,outcome
C=CCSSCC=C,inconclusive: 46.1 µM,
C=CCN(C1=NCCN1)c1c(Cl)cccc1Cl,inconclusive: 38.7 µM,
CC(C)[C@@H](C(=O)O[C@@H](C#N)c1cccc(Oc2ccccc2)c1)c1ccc(Cl)cc1,inconclusive: 46.1 µM,
C#CCOC(C(=O)OCCN(C)C)(c1ccccc1)c1ccccc1,,inactive
Oc1ccc2c3c1O[C@H]1[C@@H](O)C=C[C@H]4[C@@H](C2)NCC[C@@]341,,inactive
CC1(C)S[C@@H]2[C@H](N)C(=O)N2[C@H]1C(=O)O,,inactive
N#CCCCl,inconclusive: 46.1 µM and inconclusive: 45.1 µM,
O=C(O)c1nn(Cc2ccc(Cl)cc2Cl)c2ccccc12,active: 81.2 µM,
CC(C)Br,inconclusive: 46.2 µM,
Cc1cccc(N)c1C,,inactive
O=S(=O)(Cl)Cl,inconclusive: 44.7 µM,
CC(Cl)C(=O)O (stereo not given),inconclusive: 47.6 µM,
CC(C)(O)C(Cl)(Cl)Cl,inconclusive: 23 µM,
N[C@@H](Cc1ccc(N(CCCl)CCCl)cc1)C(=O)O,active: 22.7 µM and active: 30.4 µM,
O=C1C=CC(=O)C=C1,inconclusive: 46.1 µM and inconclusive: 46.3 µM,
NC(=O)CF,inconclusive: 46.1 µM,
CCOP(=S)(OCC)Oc1ccc([N+](=O)[O-])cc1,inconclusive: 23 µM and inconclusive: 46.6 µM,
C=C1C[C@@H]2[C@H](CC[C@]3(C)C(=O)CC[C@@H]23)[C@@]2(C)C=CC(=O)C=C12,inconclusive: 23 µM,
Cc1nc2ccccc2c(=O)n1-c1ccccc1Cl,inconclusive: 44.3 µM,
